Assay results as given in patent US20200308559A1, “Composition for detecting protein-protein interactions comprising fragments of secreted alkaline phosphatase (SEAP) and method for detecting protein-protein interactions using the same” (priority 2019, published 2020).
These are yes or no findings as the source states them, for the method shown. Some results given as binding are weak or reduced against the parent protein; the word gives no strength.

Protein sequences, listed by entry. Tags and fused reporters are not part of them. Lines headed by an entry give the natural chain unless they say otherwise; changes in a name come on top.
UniProt P05187: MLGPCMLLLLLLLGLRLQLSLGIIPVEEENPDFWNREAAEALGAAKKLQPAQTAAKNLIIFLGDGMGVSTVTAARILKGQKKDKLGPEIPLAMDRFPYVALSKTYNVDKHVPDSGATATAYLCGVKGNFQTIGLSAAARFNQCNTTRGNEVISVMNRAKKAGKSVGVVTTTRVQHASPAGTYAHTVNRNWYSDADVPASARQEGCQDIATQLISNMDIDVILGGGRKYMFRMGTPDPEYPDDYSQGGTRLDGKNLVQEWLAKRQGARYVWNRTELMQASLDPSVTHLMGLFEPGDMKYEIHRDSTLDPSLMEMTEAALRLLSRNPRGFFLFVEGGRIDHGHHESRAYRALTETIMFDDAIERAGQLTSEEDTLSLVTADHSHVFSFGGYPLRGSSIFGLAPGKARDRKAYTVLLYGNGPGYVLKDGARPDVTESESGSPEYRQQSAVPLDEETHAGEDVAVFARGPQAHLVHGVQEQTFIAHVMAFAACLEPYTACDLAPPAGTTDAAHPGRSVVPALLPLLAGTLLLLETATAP

Molecular target: SEAP C-terminal fragment cleaved at amino acid position 8 (9-502), fused to FRB (Homo sapiens (Human)) (UniProt P05187)
Assay: split-SEAP complementation in HEK-293T cells, 100 nM rapamycin, pNpp absorbance at 405 nm

HA-FKBP-snSEAP8 (SEAP N-terminal fragment 1-8 fused to the C-terminal of FKBP12) (from UniProt P62942 2-108)
binding: binds
